The values that follow come from doi:10.1101/2022.11.15.516593.

The test concerns the target T1, EMBRYONIC FLOWER 2 (EMF2), yeast two-hybrid fusion (Arabidopsis thaliana) (UniProt Q8L6Y4).
T1 sequence: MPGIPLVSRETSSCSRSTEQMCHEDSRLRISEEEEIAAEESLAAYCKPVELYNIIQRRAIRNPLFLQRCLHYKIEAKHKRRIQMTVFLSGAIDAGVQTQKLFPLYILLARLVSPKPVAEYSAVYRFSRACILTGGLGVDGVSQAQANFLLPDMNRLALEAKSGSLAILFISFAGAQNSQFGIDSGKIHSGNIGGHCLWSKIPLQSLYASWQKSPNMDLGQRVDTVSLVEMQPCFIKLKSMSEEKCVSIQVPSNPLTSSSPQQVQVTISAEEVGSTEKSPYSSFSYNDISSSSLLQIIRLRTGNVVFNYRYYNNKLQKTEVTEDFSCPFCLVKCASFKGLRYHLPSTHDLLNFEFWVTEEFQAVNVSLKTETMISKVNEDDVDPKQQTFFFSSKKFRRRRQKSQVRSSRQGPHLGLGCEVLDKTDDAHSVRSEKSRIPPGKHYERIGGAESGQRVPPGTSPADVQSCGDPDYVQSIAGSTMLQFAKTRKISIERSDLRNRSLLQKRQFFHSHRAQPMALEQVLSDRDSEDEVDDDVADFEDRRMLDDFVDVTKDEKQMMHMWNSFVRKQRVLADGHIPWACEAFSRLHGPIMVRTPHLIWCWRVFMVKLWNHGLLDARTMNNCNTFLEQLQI
The experiment in a line: two-hybrid.

No constants are given. Whether binding was seen depends on the method and setting. Some entries that bind do so weakly or less than the wild type. Where a sequence is shown, tags or fusion partners need not be part of it.

B1: UBIQUITIN SPECIFIC PROTEASE 5 (UBP5), yeast two-hybrid fusion (enzyme, UniProt O22207 1-924)
chain: MAEVSMGSSSSSTDLSPEEERVFIRDIAIAAEANSKEGDTFYLITQRWWQEWIEYVNQDQPCNTNDGSSLSEHCDSPGSSTLKKPSRIDNSDLIYDSSLEDPSNTSEIIETLQEGRDYVLLPQEVWNQLRSWYGGGPTLARRVISSGLSQTELAVEVYPLRLQLLLMPKSDHSAIRISKKETIRELHRRACEIFDLDSEHVRIWDYYGHQKYSLMNDLDKTLDDANLQMDQDILVEVLDINGTLSSAHIQSAQENGLVDGDSTSILIEPSKSSLAAAGGFSSSRNAFRTGSVEVSQSFDNTYSSTGVTTRGSTAGLTGLLNLGNTCFMNSAIQCLVHTPEFASYFQEDYHQEINWQNPLGMVGELALAFGDLLRKLWAPGRTPIAPRPFKAKLARFAPQFSGYNQHDSQELLAFLLDGLHEDLNRVKHKPYINSRDADGRPDEEVADEFWKNHIARNDSIIVDVCQGQYKSTLVCPICNKVSVTFDPFMYLSLPLQFNTTRAITVTVFSCDKTALPSTITVNVSKQGRCRDLIQALTNACSLKQSEELKLAEIRNNFIHRLFEDPLIPLSSIKDDDHLAAYKLSKSSENTTLLRLVLRRRDQKAGERESTVQLKPCGTPLLSSASCGDALTKGKIHCLVQNMLSPFRREESVGKKGNSDSSIPERRSARFNNTEEEDKVGGLKKAKKSNSSDLGASKLSLQLIDEDNKTINLPDNEAEAMKLPSSATVTIYLDWTPELSGMYDITCLESLPEVLKYGPTTKKARSEPLSLYACLEAFLREEPLVPDEMWFCPQCNERRQASKKLDLWRLPEVLVIHLKRFSYSRSMKHKLETFVNFPIHDLDLTKYVANKNLSQPQLYELYALTNHYGGMGSGHYTAHIKLLDDSRWYNFDDSHISHINEDDVKSGAAYVLFYRRKSDAGGKMT
For B1, the binding entry is recorded as “binds”.
